Library screening results

The chains behind the UniProt entries cited, without tags or fusion partners.
UniProt E9BF75, entry or part of it: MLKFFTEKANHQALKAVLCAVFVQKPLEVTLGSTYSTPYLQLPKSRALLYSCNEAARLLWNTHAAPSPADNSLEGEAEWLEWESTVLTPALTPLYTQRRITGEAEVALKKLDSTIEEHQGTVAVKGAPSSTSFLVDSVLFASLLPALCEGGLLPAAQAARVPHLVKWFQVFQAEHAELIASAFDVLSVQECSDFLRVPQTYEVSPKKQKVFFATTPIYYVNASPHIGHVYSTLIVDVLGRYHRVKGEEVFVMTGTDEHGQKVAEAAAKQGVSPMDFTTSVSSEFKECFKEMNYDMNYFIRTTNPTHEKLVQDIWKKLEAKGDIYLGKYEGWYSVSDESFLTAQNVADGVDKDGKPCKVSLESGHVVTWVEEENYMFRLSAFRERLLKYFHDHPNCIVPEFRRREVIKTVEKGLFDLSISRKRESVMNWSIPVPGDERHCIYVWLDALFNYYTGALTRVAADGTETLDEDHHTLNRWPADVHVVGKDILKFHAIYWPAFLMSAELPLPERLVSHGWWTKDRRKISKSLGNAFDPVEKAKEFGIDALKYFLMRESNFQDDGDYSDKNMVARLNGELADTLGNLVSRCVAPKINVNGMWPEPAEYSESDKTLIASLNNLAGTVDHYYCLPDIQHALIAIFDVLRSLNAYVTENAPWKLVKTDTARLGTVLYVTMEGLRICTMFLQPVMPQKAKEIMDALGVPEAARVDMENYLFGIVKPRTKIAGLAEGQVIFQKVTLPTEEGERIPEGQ

Measurements from “University of Dundee, Small-Polar-MMV Screening Library” (2021), ChEMBL document CHEMBL3988442.

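Primary screen of methionyl-tRNA synthetase; the read-out is not stated. Target: Methionyl-tRNA synthetase (putative), Leishmania donovani (UniProt E9BF75). The test concentration is not given. The values are filed as inhibition. Size under these conditions: about 68,000 compounds, about 24 of them at 50% or above in at least one test.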

All values are in %.
How 0% and 100% were set is not recorded. Most values in the screen are low, and negative values occur.
Compounds were drawn at random from those tested, without regard to their results.

SMILES,Inhibition
CS(=O)(=O)N1CCC2(CC1)CN(CCn1cccn1)C(=O)CO2,5.923
COc1cccc(COCC(=O)N2CCN(CC(C)(C)O)CC2)c1,6.122
CC1=N[C@@]2(CC[C@@H]3CN(C(=O)NC(C)C)C[C@@H]32)C(=O)N1CC(C)C,6.189
COCCC(=O)N1CC2(CCN(Cc3ccccc3Cl)CC2)C1,10.99
CN1C[C@@H](C(=O)N2CCOCC2)[C@@]2(CCc3ccccc3C(=O)N2)C1,8.571
CN(C(=O)COc1ccc(F)cc1)[C@@H]1CS(=O)(=O)C[C@H]1O,9.14
Cc1ncncc1C(=O)N1CCCN(Cc2cnn(C(C)C)c2)CC1,7.692
O=C(c1ccccn1)N1CCN(C(c2ccccc2)C(F)(F)F)CC1 (stereo unspecified),3.297
Cc1ccccc1CC(=O)N1C[C@@H](O)[C@H](N2CCOCC2)C1,11.39
COc1ccc(NC(=O)NC(C)Cc2ccco2)cn1 (stereo unspecified),18.95
Cc1ccc(C(=O)N2CC[C@@H]3[C@H]2CCC(=O)N3CC2CC2)o1,12.8
CC(=O)N1CCCN(C(=O)NCCOc2ccc3c(c2)CCC3)CC1,11.22
CC(C)Oc1cc(N2CC[C@@H](N3CCOCC3)[C@H](O)C2)nc(N)n1,13.11
CN(C)C(Cn1ccnc1-c1ccccc1C(=O)O)c1ccccc1Cl (stereo unspecified),7.843
Fc1ccccc1Cc1noc(CN2CCCC(CN3CCCC3)C2)n1 (stereo unspecified),15.56
Cc1cccc(-c2noc(CN3CCOCC3C)n2)c1 (stereo unspecified),16.67
Cc1n[nH]c(C)c1CCC(=O)N[C@@H]1CCC[C@@H](Oc2ccccc2)[C@@H]1O,4.199
CC(C)Oc1ncccc1CNC(=O)c1ccc(=O)[nH]n1,17.48
COCCNC(=O)NCC(C)c1ccccc1OC (stereo unspecified),19.59
COc1ccc(C2Nc3cc(Cl)ccc3C3=NCCN32)cc1OC (stereo unspecified),19.86
Cc1nnc2sc(-c3cc(C(C)C)n[nH]3)nn12,4.02
COc1cccc(Cn2ncc(N(C)CCc3ccccc3)cc2=O)c1,18.67
CC(CNC(=O)N1CCSCC1)Cc1cccs1 (stereo unspecified),14.29
CC(C)(C)c1csc(CN2CCN(S(=O)(=O)c3cccnc3)CC2)n1,7.759
Cc1nc(C)c2c(n1)CCN(C(=O)CN(C)C)CC2,14.19
CCc1cnc(N2CCN(Cc3ccon3)CC2)s1,22.56
CCCc1nc(C)c(CN2CC3(CCOC3)CCC2=O)s1 (stereo unspecified),21.6
O=C(Nc1nc2c(s1)CN(S(=O)(=O)C1CC1)CC2)c1c(F)cccc1F,11.33
CN(Cc1nnc(C2CC2)n1C)C1CCN(CCc2cnn(C)c2)C1 (stereo unspecified),-5.491
O=C(NCCCNC(=O)c1cccc(O)c1)NCc1ccccc1F,15.49
CCN(CC)S(=O)(=O)N1CCC(c2c(C(N)=O)sc3ccccc23)C1 (stereo unspecified),11.75
CCc1ccc(O)c(C(=O)N2CCN(CC(=O)N3CCCCC3)CC2)c1,4.416
Cc1oncc1C(=O)N1CC[C@H]2C[C@H](c3ccncn3)O[C@@H]2C1,-1.961
COc1ccc(CNC(=O)Nc2cccnc2N2CCCC2)cc1,10.74
CCc1noc(C(C)N(C)CC(=O)Nc2ccc(Br)cc2C)n1 (stereo unspecified),-50.9
Cc1cc(C)n2ncc(CN3C[C@@H](O)[C@H](Oc4ccccc4)C3)c2n1,8.387
CC(NC1(CNC(=O)OC(C)(C)C)CCOCC1)c1ccccc1 (stereo unspecified),9.938
CC(NCc1cccc(C#N)c1)c1ccccn1 (stereo unspecified),3.064
O=C(NCC1CCCO1)c1ccc(S(=O)(=O)NCCc2cn[nH]c2)cc1 (stereo unspecified),1.023
O=C(c1cccc(-n2cccn2)c1)N1CCCOC(CN2CCCC2)C1 (stereo unspecified),19.74
COCCN1CCN(CC(=O)NC2(C#N)CCCC2)CC1,14.25
CCN(Cc1nc(C(C)C)no1)Cc1cccs1,7.087
COc1ccc(CNC2CCc3ncnn3C2)cc1OCCCC#N (stereo unspecified),18.92
CN1[C@@H](C(=O)NCC2CC2)C[C@@H]2CN(Cc3ccco3)C[C@@H]21,9.764
CCN(CC1CCOC1)C(=O)c1ccn(-c2cc(C)ccc2OC)n1 (stereo unspecified),8.629
CN(C)c1nc2c(c(=O)[nH]1)CCN(C(=O)c1ccc(=O)[nH]c1)C2,12.56
CC(=O)c1cc(C(=O)N2CCN(C)Cc3ccccc32)n(C)c1,3.971
Cc1cc(CNCC2CCCN(C(=O)OC(C)(C)C)C2)no1 (stereo unspecified),4.762
Cc1ccc(C(F)(F)F)cc1NC(=O)C1CCCN1 (stereo unspecified),17.02
CCn1cnnc1CNC(=O)N1CCCCCC1,19.34
COc1ccc(C2CCCN2C(=O)NCCn2ccnc2)cc1 (stereo unspecified),12.72
CN(c1c(F)cccc1F)S(=O)(=O)c1cc2c(c(C(=O)O)c1)OCCO2,11.87
COc1ccccc1N1CCC(CNCc2cccc(O)c2)C1 (stereo unspecified),12.42
Cc1nn(C)c(N(C)C)c1CNCCNS(C)(=O)=O,12.88
CS(=O)(=O)NC1CC2(CCN(CC3CC3)CC2)Oc2ccccc21 (stereo unspecified),19.8
Cc1ccc(C(=O)N2CCCC2c2nnc3n2CCCCC3)s1 (stereo unspecified),10.67
c1cc(NCc2ccsc2)cc(-c2nnc[nH]2)c1,19.51
Cc1cccc(OCCNC(=O)CN2CCCC2c2noc(C)n2)c1 (stereo unspecified),14.21
CC(=O)N1CCC2(CC1)CN(CC(C)C)CC21CCNC1=O (stereo unspecified),8.333
Cc1ccc(C(=O)Nc2nnc(CC(C)C)s2)c(-n2cnnn2)c1C,1.075
CC(C)(C)c1cnc(CN2CCC[C@H]2CO)o1,17.41
CC(Cn1cccn1)NC(=O)Nc1ccc(N2CCCC2)nc1 (stereo unspecified),7.865
CC(CS(C)(=O)=O)N(C(=O)Nc1cc(F)ccc1Cl)C1CC1 (stereo unspecified),3.631

For reference, 7 entries once more:

{"smiles": "CS(=O)(=O)N1CCC2(CC1)CN(CCn1cccn1)C(=O)CO2", "Inhibition": 5.923}
{"smiles": "Cc1oncc1C(=O)N1CC[C@H]2C[C@H](c3ccncn3)O[C@@H]2C1", "Inhibition": -1.961}
{"smiles": "CC(C)(C)c1cnc(CN2CCC[C@H]2CO)o1", "Inhibition": 17.41}
{"smiles": "COc1ccc(C2Nc3cc(Cl)ccc3C3=NCCN32)cc1OC", "stereo": "stereo unspecified", "Inhibition": 19.86}
{"smiles": "CC(Cn1cccn1)NC(=O)Nc1ccc(N2CCCC2)nc1", "stereo": "stereo unspecified", "Inhibition": 7.865}
{"smiles": "CC(=O)N1CCC2(CC1)CN(CC(C)C)CC21CCNC1=O", "stereo": "stereo unspecified", "Inhibition": 8.333}
{"smiles": "COc1ccc(NC(=O)NC(C)Cc2ccco2)cn1", "stereo": "stereo unspecified", "Inhibition": 18.95}